Experimental data: the supplement of paper PMC6411743
± gives the standard deviation of the averaged measurements. The list shows a part of the results.

Protein sequences, listed by entry. Tags and fused reporters are not part of them. Lines headed by an entry give the natural chain unless they say otherwise; changes in a name come on top.
UniProt O60231: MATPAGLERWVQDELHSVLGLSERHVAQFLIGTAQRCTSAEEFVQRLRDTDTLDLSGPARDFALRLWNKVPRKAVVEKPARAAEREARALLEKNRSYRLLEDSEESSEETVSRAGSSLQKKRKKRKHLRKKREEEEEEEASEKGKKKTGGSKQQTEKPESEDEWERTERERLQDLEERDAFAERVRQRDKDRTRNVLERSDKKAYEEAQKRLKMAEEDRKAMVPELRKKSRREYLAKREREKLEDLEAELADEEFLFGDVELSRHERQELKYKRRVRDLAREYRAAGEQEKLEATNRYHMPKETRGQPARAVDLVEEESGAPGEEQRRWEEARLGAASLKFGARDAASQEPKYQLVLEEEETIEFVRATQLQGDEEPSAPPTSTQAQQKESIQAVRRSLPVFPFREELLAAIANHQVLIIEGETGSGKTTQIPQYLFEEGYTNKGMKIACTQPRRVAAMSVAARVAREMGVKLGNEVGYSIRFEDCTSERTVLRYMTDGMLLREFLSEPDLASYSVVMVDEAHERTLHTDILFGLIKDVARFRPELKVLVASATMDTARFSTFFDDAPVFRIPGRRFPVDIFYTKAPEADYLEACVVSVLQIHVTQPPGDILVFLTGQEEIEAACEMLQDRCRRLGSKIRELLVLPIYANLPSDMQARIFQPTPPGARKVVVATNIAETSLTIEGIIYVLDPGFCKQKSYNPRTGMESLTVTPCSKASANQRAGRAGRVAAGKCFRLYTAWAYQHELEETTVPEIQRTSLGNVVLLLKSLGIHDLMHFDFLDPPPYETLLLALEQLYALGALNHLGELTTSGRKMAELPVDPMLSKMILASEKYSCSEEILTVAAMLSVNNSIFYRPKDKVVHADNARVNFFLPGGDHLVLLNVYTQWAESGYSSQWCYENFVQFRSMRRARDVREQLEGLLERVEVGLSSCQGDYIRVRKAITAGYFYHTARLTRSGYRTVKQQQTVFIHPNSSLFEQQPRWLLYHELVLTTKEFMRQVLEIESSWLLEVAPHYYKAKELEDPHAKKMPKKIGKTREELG
UniProt O00186: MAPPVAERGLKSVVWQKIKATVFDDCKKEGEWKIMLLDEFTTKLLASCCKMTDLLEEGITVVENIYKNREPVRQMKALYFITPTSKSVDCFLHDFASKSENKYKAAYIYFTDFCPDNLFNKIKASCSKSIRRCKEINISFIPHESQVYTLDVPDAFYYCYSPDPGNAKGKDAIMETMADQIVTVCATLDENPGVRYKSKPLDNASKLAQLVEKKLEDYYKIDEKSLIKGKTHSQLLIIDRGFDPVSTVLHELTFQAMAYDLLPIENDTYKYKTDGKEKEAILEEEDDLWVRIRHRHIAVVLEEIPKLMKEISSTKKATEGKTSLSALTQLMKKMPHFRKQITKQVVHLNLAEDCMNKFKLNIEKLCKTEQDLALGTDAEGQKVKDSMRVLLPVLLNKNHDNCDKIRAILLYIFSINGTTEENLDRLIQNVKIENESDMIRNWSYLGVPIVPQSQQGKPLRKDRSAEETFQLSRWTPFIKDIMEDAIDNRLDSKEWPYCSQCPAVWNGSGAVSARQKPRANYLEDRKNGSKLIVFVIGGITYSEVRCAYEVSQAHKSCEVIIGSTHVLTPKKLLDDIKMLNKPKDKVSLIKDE
UniProt O60551: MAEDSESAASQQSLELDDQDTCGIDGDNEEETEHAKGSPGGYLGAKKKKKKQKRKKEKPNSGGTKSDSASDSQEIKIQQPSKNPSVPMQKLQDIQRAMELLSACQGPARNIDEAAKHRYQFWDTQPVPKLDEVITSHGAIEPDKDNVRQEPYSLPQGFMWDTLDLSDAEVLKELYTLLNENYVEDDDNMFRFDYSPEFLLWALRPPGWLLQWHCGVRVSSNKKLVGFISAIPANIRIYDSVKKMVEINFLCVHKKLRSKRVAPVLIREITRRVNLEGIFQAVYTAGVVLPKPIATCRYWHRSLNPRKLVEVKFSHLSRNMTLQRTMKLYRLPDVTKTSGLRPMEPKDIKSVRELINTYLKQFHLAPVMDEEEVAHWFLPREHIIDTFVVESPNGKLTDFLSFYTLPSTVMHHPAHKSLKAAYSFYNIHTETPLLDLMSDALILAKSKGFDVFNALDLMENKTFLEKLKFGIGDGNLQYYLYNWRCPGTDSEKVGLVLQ
UniProt O14777: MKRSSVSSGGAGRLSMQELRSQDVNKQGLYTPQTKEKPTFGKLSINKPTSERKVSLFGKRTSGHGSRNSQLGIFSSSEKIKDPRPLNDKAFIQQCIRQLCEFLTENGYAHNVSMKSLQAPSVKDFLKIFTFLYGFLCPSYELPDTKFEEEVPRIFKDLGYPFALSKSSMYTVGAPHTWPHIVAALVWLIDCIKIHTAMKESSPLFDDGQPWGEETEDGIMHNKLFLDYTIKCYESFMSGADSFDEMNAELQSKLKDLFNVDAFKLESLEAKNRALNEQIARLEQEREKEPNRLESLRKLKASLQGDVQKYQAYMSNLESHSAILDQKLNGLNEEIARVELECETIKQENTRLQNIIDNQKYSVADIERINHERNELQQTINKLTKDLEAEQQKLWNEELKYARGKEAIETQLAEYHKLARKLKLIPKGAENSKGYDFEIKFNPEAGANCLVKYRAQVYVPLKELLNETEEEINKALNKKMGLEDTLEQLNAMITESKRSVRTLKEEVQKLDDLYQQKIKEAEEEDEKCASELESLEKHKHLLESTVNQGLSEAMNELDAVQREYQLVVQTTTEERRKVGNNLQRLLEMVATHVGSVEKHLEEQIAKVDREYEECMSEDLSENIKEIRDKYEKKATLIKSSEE
UniProt O15269: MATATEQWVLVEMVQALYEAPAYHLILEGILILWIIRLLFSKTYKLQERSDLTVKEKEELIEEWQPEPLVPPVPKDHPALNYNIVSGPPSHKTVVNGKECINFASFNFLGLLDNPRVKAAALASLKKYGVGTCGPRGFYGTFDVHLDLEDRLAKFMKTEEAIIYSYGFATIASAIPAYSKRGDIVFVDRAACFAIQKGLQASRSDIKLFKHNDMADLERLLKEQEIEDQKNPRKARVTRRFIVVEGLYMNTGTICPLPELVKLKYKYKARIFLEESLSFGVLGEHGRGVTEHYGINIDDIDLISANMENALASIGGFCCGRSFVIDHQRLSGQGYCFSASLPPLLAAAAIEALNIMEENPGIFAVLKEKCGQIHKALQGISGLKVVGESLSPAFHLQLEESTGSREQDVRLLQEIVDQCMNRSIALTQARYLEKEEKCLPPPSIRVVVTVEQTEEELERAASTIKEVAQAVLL
UniProt O43852: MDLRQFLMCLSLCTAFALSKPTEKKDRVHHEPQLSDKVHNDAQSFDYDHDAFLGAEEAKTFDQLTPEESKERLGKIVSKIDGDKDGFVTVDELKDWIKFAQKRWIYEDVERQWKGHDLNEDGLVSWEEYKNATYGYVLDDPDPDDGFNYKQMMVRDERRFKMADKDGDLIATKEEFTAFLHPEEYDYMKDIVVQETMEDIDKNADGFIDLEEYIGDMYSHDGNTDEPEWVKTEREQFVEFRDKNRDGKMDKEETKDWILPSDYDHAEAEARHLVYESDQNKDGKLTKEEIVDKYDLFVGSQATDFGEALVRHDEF
UniProt O60763: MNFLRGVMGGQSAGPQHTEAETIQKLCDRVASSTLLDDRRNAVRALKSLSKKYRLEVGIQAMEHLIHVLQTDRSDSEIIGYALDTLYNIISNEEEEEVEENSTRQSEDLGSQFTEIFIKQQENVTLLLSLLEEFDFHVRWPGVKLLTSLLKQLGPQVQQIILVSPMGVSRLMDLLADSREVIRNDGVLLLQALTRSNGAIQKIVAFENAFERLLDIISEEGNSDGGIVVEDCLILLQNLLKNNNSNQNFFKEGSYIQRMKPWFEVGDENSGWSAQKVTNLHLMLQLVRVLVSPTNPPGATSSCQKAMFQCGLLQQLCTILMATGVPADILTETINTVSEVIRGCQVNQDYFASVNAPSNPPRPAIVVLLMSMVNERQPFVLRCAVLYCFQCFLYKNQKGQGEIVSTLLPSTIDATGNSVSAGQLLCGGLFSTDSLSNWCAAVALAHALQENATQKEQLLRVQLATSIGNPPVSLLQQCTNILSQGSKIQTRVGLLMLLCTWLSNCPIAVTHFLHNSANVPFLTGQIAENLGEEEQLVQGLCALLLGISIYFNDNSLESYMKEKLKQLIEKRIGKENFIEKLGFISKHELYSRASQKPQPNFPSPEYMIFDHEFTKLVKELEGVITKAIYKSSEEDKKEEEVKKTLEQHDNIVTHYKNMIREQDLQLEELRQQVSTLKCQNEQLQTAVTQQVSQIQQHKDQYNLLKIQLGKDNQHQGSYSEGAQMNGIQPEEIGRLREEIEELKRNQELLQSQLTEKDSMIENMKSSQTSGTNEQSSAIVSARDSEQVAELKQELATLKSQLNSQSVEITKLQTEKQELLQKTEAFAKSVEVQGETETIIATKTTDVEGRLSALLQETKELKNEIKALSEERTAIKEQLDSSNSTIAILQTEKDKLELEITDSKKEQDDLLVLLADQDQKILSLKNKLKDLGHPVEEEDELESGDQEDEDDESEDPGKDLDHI
UniProt O43639, whole entry: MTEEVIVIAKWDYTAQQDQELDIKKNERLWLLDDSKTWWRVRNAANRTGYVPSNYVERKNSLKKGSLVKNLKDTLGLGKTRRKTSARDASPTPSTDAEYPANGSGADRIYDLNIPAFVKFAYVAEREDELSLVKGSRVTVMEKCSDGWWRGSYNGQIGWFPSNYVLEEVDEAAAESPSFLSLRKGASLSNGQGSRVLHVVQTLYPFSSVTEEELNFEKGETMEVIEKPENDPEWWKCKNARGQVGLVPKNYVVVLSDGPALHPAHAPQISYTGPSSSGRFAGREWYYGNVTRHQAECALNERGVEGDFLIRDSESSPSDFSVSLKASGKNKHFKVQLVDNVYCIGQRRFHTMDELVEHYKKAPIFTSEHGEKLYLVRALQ
UniProt O00629, whole entry: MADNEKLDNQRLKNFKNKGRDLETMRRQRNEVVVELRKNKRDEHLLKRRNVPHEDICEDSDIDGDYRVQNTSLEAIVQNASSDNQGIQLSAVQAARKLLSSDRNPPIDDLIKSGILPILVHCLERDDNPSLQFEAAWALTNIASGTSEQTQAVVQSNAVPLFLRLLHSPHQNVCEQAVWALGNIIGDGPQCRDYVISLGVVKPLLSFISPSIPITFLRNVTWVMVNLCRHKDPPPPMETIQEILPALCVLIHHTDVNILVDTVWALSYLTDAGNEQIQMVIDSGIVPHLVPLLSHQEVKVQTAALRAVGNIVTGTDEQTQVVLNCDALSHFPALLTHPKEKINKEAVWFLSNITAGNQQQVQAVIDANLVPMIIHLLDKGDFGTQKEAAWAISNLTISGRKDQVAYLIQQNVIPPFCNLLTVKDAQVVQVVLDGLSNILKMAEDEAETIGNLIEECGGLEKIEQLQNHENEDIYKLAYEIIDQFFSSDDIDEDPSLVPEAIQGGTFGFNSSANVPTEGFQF
UniProt P52272: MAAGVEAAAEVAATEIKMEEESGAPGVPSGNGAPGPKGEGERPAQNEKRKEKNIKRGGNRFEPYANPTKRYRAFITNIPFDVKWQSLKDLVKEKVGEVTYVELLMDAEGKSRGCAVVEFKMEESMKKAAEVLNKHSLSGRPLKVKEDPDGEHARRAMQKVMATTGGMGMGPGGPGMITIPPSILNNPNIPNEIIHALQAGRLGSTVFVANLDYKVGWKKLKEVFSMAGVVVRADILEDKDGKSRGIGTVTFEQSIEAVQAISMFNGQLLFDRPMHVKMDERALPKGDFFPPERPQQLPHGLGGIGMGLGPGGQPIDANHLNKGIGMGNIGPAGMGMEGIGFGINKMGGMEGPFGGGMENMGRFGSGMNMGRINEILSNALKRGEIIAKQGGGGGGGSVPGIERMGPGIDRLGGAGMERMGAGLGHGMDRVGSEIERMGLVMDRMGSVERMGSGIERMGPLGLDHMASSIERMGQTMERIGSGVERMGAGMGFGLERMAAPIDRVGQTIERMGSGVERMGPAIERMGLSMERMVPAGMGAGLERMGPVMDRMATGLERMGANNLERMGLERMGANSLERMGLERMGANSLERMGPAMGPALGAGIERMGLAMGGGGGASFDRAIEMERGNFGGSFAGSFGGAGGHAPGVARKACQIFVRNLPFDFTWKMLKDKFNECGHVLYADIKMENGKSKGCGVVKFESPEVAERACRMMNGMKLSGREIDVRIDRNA
UniProt O14657: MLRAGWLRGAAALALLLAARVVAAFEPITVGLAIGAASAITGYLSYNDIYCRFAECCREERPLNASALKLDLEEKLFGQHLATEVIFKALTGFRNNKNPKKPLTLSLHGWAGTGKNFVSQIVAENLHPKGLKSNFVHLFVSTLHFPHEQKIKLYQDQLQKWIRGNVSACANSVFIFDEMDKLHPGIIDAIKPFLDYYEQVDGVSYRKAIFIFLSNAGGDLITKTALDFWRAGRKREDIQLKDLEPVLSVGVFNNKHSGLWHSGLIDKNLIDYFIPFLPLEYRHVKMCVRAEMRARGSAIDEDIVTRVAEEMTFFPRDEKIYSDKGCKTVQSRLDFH

Compound: Nc1nc2c(ncn2[C@@H]2O[C@H](COP(=O)(O)OP(=O)(O)OP(=O)(O)O)[C@@H](O)[C@H]2O)c(=O)[nH]1 [guanosine triphosphate]
Assay: NP40-soluble protein abundance relative to vehicle (solubility fold change) (ratio); higher = more soluble protein in presence of GTP
Procedure, shortened: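 Jurkat crude lysate prepared with a Dounce homogeniser was treated at eight concentrations spanning 0.1 to 10 mM, 10 min at room temperature then 3 min at 37 °C. Solubilisation with 0.8% NP40 and benzonase and ultracentrifugation preceded TMT labelling of the supernatant for LC-MS/MS. Fold change against the detergent-processed vehicle was determined per replicate from vsn-normalised intensities, across three independent experiments.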

Target	NP40-soluble protein abundance (concentration: 0.1mM)	NP40-soluble protein abundance (concentration: 0.5mM)	NP40-soluble protein abundance (concentration: 1mM)	NP40-soluble protein abundance (concentration: 2mM)	NP40-soluble protein abundance (concentration: 4mM)	NP40-soluble protein abundance (concentration: 6mM)	NP40-soluble protein abundance (concentration: 8mM)	NP40-soluble protein abundance (concentration: 10mM)
CCNT1 (UniProt O60563)	0.958 ± 0.073	1.03 ± 0.054	1.05 ± 0.1	1.15 ± 0.0016	1.28 ± 0.11	1.43 ± 0.039	1.51 ± 0.19	1.68 ± 0.11
AGPS (UniProt O00116)	0.9782 ± 0.0089	1.01 ± 0.037	0.92 ± 0.015	0.925 ± 0.04	0.897 ± 0.045	0.907 ± 0.041	0.869 ± 0.019	0.852 ± 0.052
DHX16 (UniProt O60231)	0.986 ± 0.029	1.01 ± 0.044	1.02 ± 0.039	0.994 ± 0.033	0.995 ± 0.025	0.977 ± 0.029	0.993 ± 0.058	1 ± 0.037
ARPC2 (UniProt O15144)	0.993 ± 0.022	1.07 ± 0.068	0.946 ± 0.025	0.977 ± 0.063	0.947 ± 0.039	0.971 ± 0.044	0.9041 ± 0.0029	0.882 ± 0.054
UniProt O15260 and related entries	1.13 ± 0.021	1.03 ± 0.05	1.05 ± 0.022	1.01 ± 0.07	1.04 ± 0.074	0.956 ± 0.055	1.03 ± 0.044	0.953 ± 0.03
STXBP3 (UniProt O00186)	0.996 ± 0.042	1.02 ± 0.064	0.935 ± 0.037	0.905 ± 0.022	0.901 ± 0.019	0.917 ± 0.029	0.8772 ± 0.0075	0.843 ± 0.066
UniProt O60341	1.01 ± 0.025	1.06 ± 0.028	1.02 ± 0.037	1.08 ± 0.064	1.07 ± 0.11	1.08 ± 0.1	1.06 ± 0.11	1.05 ± 0.079
UniProt O43291	1.02 ± 0.092	0.889 ± 0.082	0.934 ± 0.08	0.944 ± 0.19	0.902 ± 0.12	0.924 ± 0.018	0.89 ± 0.01	0.94 ± 0.017
UniProt O14965 and related entries	1.03 ± 0.041	1.05 ± 0.063	0.997 ± 0.094	0.998 ± 0.099	1.04 ± 0.073	1 ± 0.098	1.08 ± 0.083	1.08 ± 0.053
UniProt O60551 and related entries	1.1 ± 0.021	1.091 ± 0.0049	1.12 ± 0.066	1.108 ± 0.0057	1.19 ± 0.099	1.17 ± 0.015	1.236 ± 0.012	1.149 ± 0.011
PRMT5 (UniProt O14744)	1.06 ± 0.077	1.11 ± 0.12	1.04 ± 0.095	1.08 ± 0.16	1.1 ± 0.15	1.08 ± 0.16	1.06 ± 0.1	1.01 ± 0.11
UniProt O14841 and related entries	1.04 ± 0.019	1.02 ± 0.066	1.06 ± 0.11	0.927 ± 0.048	1.04 ± 0.11	0.912 ± 0.13	1.03 ± 0.0033	0.936 ± 0.086
UniProt O14777 and related entries	0.966 ± 0.017	0.95 ± 0.025	0.994 ± 0.02	0.954 ± 0.025	0.966 ± 0.045	0.955 ± 0.043	0.958 ± 0.037	0.971 ± 0.042
SPTLC1 (UniProt O15269)	1.05 ± 0.016	0.983 ± 0.023	0.9992 ± 0.009	0.959 ± 0.027	1.025 ± 0.0098	0.934 ± 0.02	0.963 ± 0.026	0.901 ± 0.023
UniProt O43491-4|E9PHY5 and related entries	0.951 ± 0.068	0.947 ± 0.066	0.916 ± 0.058	0.853 ± 0.073	0.843 ± 0.08	0.875 ± 0.069	0.897 ± 0.066	0.87 ± 0.061
UniProt O43379-4|O43379	0.984 ± 0.03	1.02 ± 0.07	0.964 ± 0.02	0.991 ± 0.045	0.986 ± 0.029	0.994 ± 0.027	0.993 ± 0.067	0.964 ± 0.025
UniProt O43852 and related entries	0.872 ± 0.044	0.89 ± 0.095	0.936 ± 0.073	0.896 ± 0.1	0.878 ± 0.097	0.915 ± 0.11	0.888 ± 0.088	0.908 ± 0.093
UniProt O15042 and related entries	1 ± 0.011	1.08 ± 0.013	1.15 ± 0.05	1.18 ± 0.094	1.24 ± 0.13	1.32 ± 0.14	1.4 ± 0.22	1.37 ± 0.23
SCO2 (UniProt O43819)	1.11 ± 0.087	1.05 ± 0.069	1.04 ± 0.1	1.03 ± 0.077	1.05 ± 0.16	1.04 ± 0.14	1.07 ± 0.094	1.05 ± 0.1
UniProt O43148 and related entries	1.01 ± 0.018	1.02 ± 0.04	0.987 ± 0.042	0.985 ± 0.049	0.988 ± 0.051	0.977 ± 0.044	0.997 ± 0.042	0.985 ± 0.019
UniProt O60763 and related entries	0.922 ± 0.063	0.928 ± 0.045	0.92 ± 0.072	0.9 ± 0.079	0.892 ± 0.066	0.896 ± 0.075	0.888 ± 0.054	0.914 ± 0.069
PSMD11 (UniProt O00231)	0.985 ± 0.019	0.991 ± 0.013	1.02 ± 0.033	1.02 ± 0.087	1.04 ± 0.089	1.02 ± 0.11	1.03 ± 0.092	0.967 ± 0.11
NCK2 (UniProt O43639)	1.04 ± 0.046	0.984 ± 0.027	0.972 ± 0.021	0.937 ± 0.038	0.927 ± 0.054	0.915 ± 0.074	0.929 ± 0.061	0.882 ± 0.085
M0R0Z3 and related entries (UniProt P35269)	0.971 ± 0.054	0.973 ± 0.062	0.99 ± 0.057	0.946 ± 0.081	0.941 ± 0.073	0.949 ± 0.052	0.992 ± 0.022	0.965 ± 0.05
UniProt O43683 and related entries	0.943 ± 0.14	1 ± 0.023	1.05 ± 0.075	0.932 ± 0.16	0.985 ± 0.093	0.952 ± 0.2	0.987 ± 0.077	0.929 ± 0.1
UniProt O14880 and related entries	0.98 ± 0.15	0.999 ± 0.12	0.98 ± 0.13	0.953 ± 0.14	0.947 ± 0.15	0.943 ± 0.15	0.906 ± 0.18	0.906 ± 0.16
L0R819 and related entries (UniProt Q9NWL6)	1.06 ± 0.055	1.1 ± 0.022	1.09 ± 0.052	1.04 ± 0.18	1.16 ± 0.16	1.07 ± 0.082	1.261 ± 0.0045	1.2 ± 0.043
KPNA4 (UniProt O00629)	0.989 ± 0.054	1.05 ± 0.054	1.06 ± 0.048	1.02 ± 0.067	1.03 ± 0.046	1.05 ± 0.095	1.07 ± 0.038	1.05 ± 0.063
M0QZM1 and related entries (UniProt P52272)	1 ± 0.057	1.05 ± 0.049	1.11 ± 0.064	1.12 ± 0.08	1.17 ± 0.083	1.12 ± 0.1	1.19 ± 0.087	1.16 ± 0.083
TOR1B (UniProt O14657)	1.02 ± 0.036	0.983 ± 0.12	0.911 ± 0.064	1.04 ± 0.024	0.957 ± 0.0046	0.996 ± 0.13	0.8772 ± 0.0067	0.895 ± 0.023

Quoted from above (two entries):
Target	NP40-soluble protein abundance (concentration: 0.1mM)	NP40-soluble protein abundance (concentration: 0.5mM)	NP40-soluble protein abundance (concentration: 1mM)	NP40-soluble protein abundance (concentration: 2mM)	NP40-soluble protein abundance (concentration: 4mM)	NP40-soluble protein abundance (concentration: 6mM)	NP40-soluble protein abundance (concentration: 8mM)	NP40-soluble protein abundance (concentration: 10mM)
KPNA4 (UniProt O00629)	0.989 ± 0.054	1.05 ± 0.054	1.06 ± 0.048	1.02 ± 0.067	1.03 ± 0.046	1.05 ± 0.095	1.07 ± 0.038	1.05 ± 0.063
M0QZM1 and related entries (UniProt P52272)	1 ± 0.057	1.05 ± 0.049	1.11 ± 0.064	1.12 ± 0.08	1.17 ± 0.083	1.12 ± 0.1	1.19 ± 0.087	1.16 ± 0.083
